Data as given in PubChem BioAssay AID1159578 (Peter MacCallum Cancer Centre, 2015).
Aim: 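siRNA pools altering how lymphatic endothelial cells close a scratch wound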 (primary screen). System: human lymphatic endothelial cells. Reagent: siRNA pool against human genes, 40 nM. Duration: 48 h after transfection. Detection: 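High-content imaging of dye-stained cells in a scratch assay measures filled wound area and nuclei per well; duplicate means given as ratio to mock and robust z-score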. Direction: migration robust z-score: higher = faster migration into the scratch; migration relative to mock: higher = more scratch area covered than mock; nuclei per well: higher = more cells in the well. Rule for the call: 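Pools averaging fewer than 3300 nuclei are never called; remaining pools count as changed when migration robust z lies outside -2 to 2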. Meaning of the calls: active = migration changed; inactive = no migration change, or too few cells.
In all, the deposit lists about 18,000 reagents; this is an unselected part. About 1,030 of all reagents (5.7%) count as active. 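Inactive calls also include pools with fewer than 3300 nuclei, whose migration was not assessed.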 Raw values are not corrected between plates. A number with no mark means an inactive call.

The first 3 records, ahead of the listing:
target gene | migration robust z-score | migration class with cell-count check | migration relative to mock | nuclei per well, duplicate mean
TMEM200C (GeneID 645369) | 0.02 | migration z between -2 and 2; enough cells | 0.89 | 5657
RABGAP1 (GeneID 23637) | 0.42 | migration z between -2 and 2; enough cells | 0.99 | 5000
DACH1 (GeneID 1602) | -0.44 | migration z between -2 and 2; enough cells | 0.72 | 6476

Main list, repeating the preview:
target gene | migration robust z-score | migration class with cell-count check | migration relative to mock | nuclei per well, duplicate mean
TMEM200C (GeneID 645369) | 0.02 | migration z between -2 and 2; enough cells | 0.89 | 5657
RABGAP1 (GeneID 23637) | 0.42 | migration z between -2 and 2; enough cells | 0.99 | 5000
DACH1 (GeneID 1602) | -0.44 | migration z between -2 and 2; enough cells | 0.72 | 6476
TAAR9 (GeneID 134860) | 0.05 | migration z between -2 and 2; enough cells | 0.82 | 5049
PTPN18 (GeneID 26469) | -0.86 | migration z between -2 and 2; enough cells | 0.64 | 5322
SNAPC5 (GeneID 10302) | 0.06 | migration z between -2 and 2; enough cells | 0.9 | 4132
UNC5CL (GeneID 222643) | 0.6 | migration z between -2 and 2; enough cells | 1.04 | 5922
VPS54 (GeneID 51542) | -0.68 | migration z between -2 and 2; enough cells | 0.71 | 5496
FOXI2 (GeneID 399823) | 0.43 | migration z between -2 and 2; enough cells | 1 | 5574
CD93 (GeneID 22918) | -0.2 | migration z between -2 and 2; enough cells | 0.76 | 5016
TMEM89 (GeneID 440955) | -1.26 | migration z between -2 and 2; enough cells | 0.56 | 5306
PTPRD (GeneID 5789) | -0.13 | migration z between -2 and 2; enough cells | 0.78 | 5073
APOE (GeneID 348) | -2.28 (active) | migration z below -2; enough cells | 0.36 | 6351
CD69 (GeneID 969) | 0.28 | migration z between -2 and 2; enough cells | 0.86 | 5753
SLC45A3 (GeneID 85414) | -3.54 (active) | migration z below -2; enough cells | -0.04 | 4370
SERPINB9 (GeneID 5272) | -1.01 | migration z between -2 and 2; enough cells | 0.61 | 5288
TUBB4A (GeneID 10382) | -2.28 | under 3300 nuclei; migration not judged | 0.29 | 3208
LAMB2 (GeneID 3913) | 0.57 | migration z between -2 and 2; enough cells | 0.92 | 4931
HAUS1 (GeneID 115106) | -1.21 | migration z between -2 and 2; enough cells | 0.57 | 5862
ADNP (GeneID 23394) | 2.74 (active) | migration z above 2; enough cells | 1.6 | 6506
GOLT1A (GeneID 127845) | -0.22 | migration z between -2 and 2; enough cells | 0.82 | 6074
NCOA5 (GeneID 57727) | -0.64 | migration z between -2 and 2; enough cells | 0.72 | 3670
ADSS1 (GeneID 122622) | 1.66 | migration z between -2 and 2; enough cells | 1.12 | 5228
OR5F1 (GeneID 338674) | -1.3 | migration z between -2 and 2; enough cells | 0.54 | 5416
ZNF512 (GeneID 84450) | 0.69 | migration z between -2 and 2; enough cells | 1.06 | 6028
CPT1B (GeneID 1375) | -0.54 | migration z between -2 and 2; enough cells | 0.7 | 6314
ACTL7A (GeneID 10881) | 0.55 | migration z between -2 and 2; enough cells | 1.03 | 6086
SCO2 (GeneID 9997) | -0.5 | migration z between -2 and 2; enough cells | 0.76 | 6694
TCF20 (GeneID 6942) | -0.05 | migration z between -2 and 2; enough cells | 0.8 | 5901
COL13A1 (GeneID 1305) | 0.2 | migration z between -2 and 2; enough cells | 0.94 | 5470
OR2G6 (GeneID 391211) | -0.54 | migration z between -2 and 2; enough cells | 0.74 | 5344
KLHL26 (GeneID 55295) | -0.16 | migration z between -2 and 2; enough cells | 0.84 | 5796
MAN1A1 (GeneID 4121) | 1.01 | migration z between -2 and 2; enough cells | 1 | 6402
CHURC1 (GeneID 91612) | 0.6 | migration z between -2 and 2; enough cells | 1.04 | 5808
EHF (GeneID 26298) | 0.94 | migration z between -2 and 2; enough cells | 0.98 | 5714
NIFK (GeneID 84365) | -0.12 | migration z between -2 and 2; enough cells | 0.86 | 5484
ETV3 (GeneID 2117) | -1.22 | migration z between -2 and 2; enough cells | 0.57 | 5496
TRMT1 (GeneID 55621) | 0.18 | migration z between -2 and 2; enough cells | 0.84 | 4716
BCL10 (GeneID 8915) | -0.7 | migration z between -2 and 2; enough cells | 0.67 | 3380
ADNP2 (GeneID 22850) | -3.31 (active) | migration z below -2; enough cells | 0.02 | 4694
GPX4 (GeneID 2879) | -0.35 | migration z between -2 and 2; enough cells | 0.8 | 5453
LYAR (GeneID 55646) | -0.6 | migration z between -2 and 2; enough cells | 0.73 | 3908
POLE3 (GeneID 54107) | -1.03 | migration z between -2 and 2; enough cells | 0.6 | 4771
LY86 (GeneID 9450) | -1.43 | migration z between -2 and 2; enough cells | 0.52 | 4318
TCL1B (GeneID 9623) | 2.24 (active) | migration z above 2; enough cells | 1.46 | 4906
PDGFB (GeneID 5155) | -0.36 | migration z between -2 and 2; enough cells | 0.74 | 6392
CPLX4 (GeneID 339302) | 0.6 | migration z between -2 and 2; enough cells | 1.04 | 6348
RAD17 (GeneID 5884) | -0.99 | migration z between -2 and 2; enough cells | 0.62 | 5110
NLRP8 (GeneID 126205) | -0.55 | migration z between -2 and 2; enough cells | 0.7 | 6564
DAD1 (GeneID 1603) | 1.74 | migration z between -2 and 2; enough cells | 1.14 | 3446
TBCEL (GeneID 219899) | -1.2 | migration z between -2 and 2; enough cells | 0.57 | 6112
JHY (GeneID 79864) | -2.4 (active) | migration z below -2; enough cells | 0.26 | 5744
AKAP7 (GeneID 9465) | -0.13 | migration z between -2 and 2; enough cells | 0.78 | 4608
HOXC4 (GeneID 3221) | 0.34 | migration z between -2 and 2; enough cells | 0.87 | 4933
PBX2 (GeneID 5089) | 0.8 | migration z between -2 and 2; enough cells | 0.96 | 6054
KRTAP5-8 (GeneID 57830) | -0.68 | migration z between -2 and 2; enough cells | 0.7 | 6038
CCN5 (GeneID 8839) | -1.19 | migration z between -2 and 2; enough cells | 0.58 | 6282
